No constants are given. Whether binding was seen depends on the method and setting. Binding seen in cells or lysates may run through a third protein. Some binding calls cover weakened binding; strength is not graded here. Sequences can lack the tags named with a protein.
T1: SMC1 (cohesin subunit) (Drosophila (endogenous in ovaries)) (UniProt Q9VCD8)
T1 sequence: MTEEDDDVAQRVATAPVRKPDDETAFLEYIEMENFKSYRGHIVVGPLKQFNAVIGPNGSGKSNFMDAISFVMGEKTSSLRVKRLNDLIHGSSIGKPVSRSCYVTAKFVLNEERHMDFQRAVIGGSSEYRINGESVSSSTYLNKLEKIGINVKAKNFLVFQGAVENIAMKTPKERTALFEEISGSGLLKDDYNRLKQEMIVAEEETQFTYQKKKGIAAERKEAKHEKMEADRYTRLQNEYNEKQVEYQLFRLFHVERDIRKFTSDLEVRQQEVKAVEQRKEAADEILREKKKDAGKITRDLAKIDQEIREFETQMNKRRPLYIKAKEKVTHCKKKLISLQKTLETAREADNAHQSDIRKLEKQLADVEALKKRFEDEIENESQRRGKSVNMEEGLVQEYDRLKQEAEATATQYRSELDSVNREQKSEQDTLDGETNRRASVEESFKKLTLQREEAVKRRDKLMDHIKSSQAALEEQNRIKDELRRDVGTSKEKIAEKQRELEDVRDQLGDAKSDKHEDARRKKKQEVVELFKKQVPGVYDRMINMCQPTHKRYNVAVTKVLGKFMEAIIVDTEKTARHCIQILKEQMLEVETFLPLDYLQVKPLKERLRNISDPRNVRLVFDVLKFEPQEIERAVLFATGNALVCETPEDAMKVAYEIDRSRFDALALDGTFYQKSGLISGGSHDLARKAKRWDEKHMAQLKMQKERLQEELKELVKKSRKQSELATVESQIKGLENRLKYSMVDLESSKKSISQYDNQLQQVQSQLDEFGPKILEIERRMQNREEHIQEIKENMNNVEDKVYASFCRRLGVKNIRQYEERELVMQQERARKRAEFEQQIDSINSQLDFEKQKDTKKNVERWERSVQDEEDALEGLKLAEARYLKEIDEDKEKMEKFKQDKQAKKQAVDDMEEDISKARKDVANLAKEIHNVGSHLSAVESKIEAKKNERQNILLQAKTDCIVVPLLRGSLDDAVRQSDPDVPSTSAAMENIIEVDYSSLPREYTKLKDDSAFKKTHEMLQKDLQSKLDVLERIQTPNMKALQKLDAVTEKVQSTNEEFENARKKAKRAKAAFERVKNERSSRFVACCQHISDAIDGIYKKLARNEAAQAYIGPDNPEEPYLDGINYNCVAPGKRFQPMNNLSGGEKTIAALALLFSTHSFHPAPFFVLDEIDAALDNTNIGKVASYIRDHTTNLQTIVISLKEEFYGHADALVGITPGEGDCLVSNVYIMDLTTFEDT

T2: FH::SOLO (full-length SOLO with tandem 3XFLAG and 3XHA tags at its N-terminus) (Drosophila) (UniProt B6JUP5)
T2 sequence: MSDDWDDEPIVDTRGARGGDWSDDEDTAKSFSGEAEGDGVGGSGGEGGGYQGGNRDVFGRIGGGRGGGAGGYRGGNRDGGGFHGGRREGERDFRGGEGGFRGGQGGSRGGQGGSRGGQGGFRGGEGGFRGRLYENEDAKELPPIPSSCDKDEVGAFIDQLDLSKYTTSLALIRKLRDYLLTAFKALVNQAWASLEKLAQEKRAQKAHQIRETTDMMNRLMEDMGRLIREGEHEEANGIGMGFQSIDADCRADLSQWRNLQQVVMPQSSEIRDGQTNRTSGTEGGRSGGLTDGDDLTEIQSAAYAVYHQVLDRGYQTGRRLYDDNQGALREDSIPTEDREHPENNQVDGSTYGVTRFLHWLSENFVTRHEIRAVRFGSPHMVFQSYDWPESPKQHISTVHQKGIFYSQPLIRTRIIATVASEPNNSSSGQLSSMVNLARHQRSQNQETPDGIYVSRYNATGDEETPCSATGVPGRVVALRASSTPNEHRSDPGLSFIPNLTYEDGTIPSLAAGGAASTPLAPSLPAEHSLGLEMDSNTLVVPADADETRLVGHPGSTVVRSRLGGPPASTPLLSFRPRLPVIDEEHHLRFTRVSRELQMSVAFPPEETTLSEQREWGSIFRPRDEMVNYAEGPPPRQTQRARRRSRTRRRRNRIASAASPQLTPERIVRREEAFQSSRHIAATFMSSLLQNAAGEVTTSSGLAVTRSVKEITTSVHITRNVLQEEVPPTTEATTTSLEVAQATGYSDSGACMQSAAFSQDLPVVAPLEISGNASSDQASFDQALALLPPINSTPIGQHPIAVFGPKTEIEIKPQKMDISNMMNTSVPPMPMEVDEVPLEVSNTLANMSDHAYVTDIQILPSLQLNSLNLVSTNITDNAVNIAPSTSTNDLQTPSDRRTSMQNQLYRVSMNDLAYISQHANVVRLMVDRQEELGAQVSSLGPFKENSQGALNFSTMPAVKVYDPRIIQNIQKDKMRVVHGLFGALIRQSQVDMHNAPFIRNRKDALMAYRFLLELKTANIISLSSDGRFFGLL


Key:
[1] = target: T1, SMC1 (cohesin subunit) (Drosophila (endogenous in ovaries)); assay: co-IP; anti-SMC1 rabbit antibody and protein A agarose beads on pre-cleared FH::SOLO ovary lysate (NP40 Cell Lysis Buffer), 4°C; blot with anti-FLAG; controls: rabbit serum, y w ovaries
[2] = target: T2, FH::SOLO (full-length SOLO with tandem 3XFLAG and 3XHA tags at its N-terminus) (Drosophila); assay: co-IP; anti-FLAG M2 antibody and protein G agarose beads on pre-cleared FH::SOLO ovary lysate (NP40 Cell Lysis Buffer), 4°C; blot with anti-SMC1; control: mouse serum

Binder	binding [1]	binding [2]
FH::SOLO (full-length SOLO with tandem 3XFLAG and 3XHA tags at its N-terminus) (protein, UniProt B6JUP5 1-1031) MSDDWDDEPIVDTRGARGGDWSDDEDTAKSFSGEAEGDGVGGSGGEGGGYQGGNRDVFGRIGGGRGGGAGGYRGGNRDGGGFHGGRREGERDFRGGEGGFRGGQGGSRGGQGGSRGGQGGFRGGEGGFRGRLYENEDAKELPPIPSSCDKDEVGAFIDQLDLSKYTTSLALIRKLRDYLLTAFKALVNQAWASLEKLAQEKRAQKAHQIRETTDMMNRLMEDMGRLIREGEHEEANGIGMGFQSIDADCRADLSQWRNLQQVVMPQSSEIRDGQTNRTSGTEGGRSGGLTDGDDLTEIQSAAYAVYHQVLDRGYQTGRRLYDDNQGALREDSIPTEDREHPENNQVDGSTYGVTRFLHWLSENFVTRHEIRAVRFGSPHMVFQSYDWPESPKQHISTVHQKGIFYSQPLIRTRIIATVASEPNNSSSGQLSSMVNLARHQRSQNQETPDGIYVSRYNATGDEETPCSATGVPGRVVALRASSTPNEHRSDPGLSFIPNLTYEDGTIPSLAAGGAASTPLAPSLPAEHSLGLEMDSNTLVVPADADETRLVGHPGSTVVRSRLGGPPASTPLLSFRPRLPVIDEEHHLRFTRVSRELQMSVAFPPEETTLSEQREWGSIFRPRDEMVNYAEGPPPRQTQRARRRSRTRRRRNRIASAASPQLTPERIVRREEAFQSSRHIAATFMSSLLQNAAGEVTTSSGLAVTRSVKEITTSVHITRNVLQEEVPPTTEATTTSLEVAQATGYSDSGACMQSAAFSQDLPVVAPLEISGNASSDQASFDQALALLPPINSTPIGQHPIAVFGPKTEIEIKPQKMDISNMMNTSVPPMPMEVDEVPLEVSNTLANMSDHAYVTDIQILPSLQLNSLNLVSTNITDNAVNIAPSTSTNDLQTPSDRRTSMQNQLYRVSMNDLAYISQHANVVRLMVDRQEELGAQVSSLGPFKENSQGALNFSTMPAVKVYDPRIIQNIQKDKMRVVHGLFGALIRQSQVDMHNAPFIRNRKDALMAYRFLLELKTANIISLSSDGRFFGLL	binds	–
SMC1 (cohesin subunit) (protein, UniProt Q9VCD8 1-1238) MTEEDDDVAQRVATAPVRKPDDETAFLEYIEMENFKSYRGHIVVGPLKQFNAVIGPNGSGKSNFMDAISFVMGEKTSSLRVKRLNDLIHGSSIGKPVSRSCYVTAKFVLNEERHMDFQRAVIGGSSEYRINGESVSSSTYLNKLEKIGINVKAKNFLVFQGAVENIAMKTPKERTALFEEISGSGLLKDDYNRLKQEMIVAEEETQFTYQKKKGIAAERKEAKHEKMEADRYTRLQNEYNEKQVEYQLFRLFHVERDIRKFTSDLEVRQQEVKAVEQRKEAADEILREKKKDAGKITRDLAKIDQEIREFETQMNKRRPLYIKAKEKVTHCKKKLISLQKTLETAREADNAHQSDIRKLEKQLADVEALKKRFEDEIENESQRRGKSVNMEEGLVQEYDRLKQEAEATATQYRSELDSVNREQKSEQDTLDGETNRRASVEESFKKLTLQREEAVKRRDKLMDHIKSSQAALEEQNRIKDELRRDVGTSKEKIAEKQRELEDVRDQLGDAKSDKHEDARRKKKQEVVELFKKQVPGVYDRMINMCQPTHKRYNVAVTKVLGKFMEAIIVDTEKTARHCIQILKEQMLEVETFLPLDYLQVKPLKERLRNISDPRNVRLVFDVLKFEPQEIERAVLFATGNALVCETPEDAMKVAYEIDRSRFDALALDGTFYQKSGLISGGSHDLARKAKRWDEKHMAQLKMQKERLQEELKELVKKSRKQSELATVESQIKGLENRLKYSMVDLESSKKSISQYDNQLQQVQSQLDEFGPKILEIERRMQNREEHIQEIKENMNNVEDKVYASFCRRLGVKNIRQYEERELVMQQERARKRAEFEQQIDSINSQLDFEKQKDTKKNVERWERSVQDEEDALEGLKLAEARYLKEIDEDKEKMEKFKQDKQAKKQAVDDMEEDISKARKDVANLAKEIHNVGSHLSAVESKIEAKKNERQNILLQAKTDCIVVPLLRGSLDDAVRQSDPDVPSTSAAMENIIEVDYSSLPREYTKLKDDSAFKKTHEMLQKDLQSKLDVLERIQTPNMKALQKLDAVTEKVQSTNEEFENARKKAKRAKAAFERVKNERSSRFVACCQHISDAIDGIYKKLARNEAAQAYIGPDNPEEPYLDGINYNCVAPGKRFQPMNNLSGGEKTIAALALLFSTHSFHPAPFFVLDEIDAALDNTNIGKVASYIRDHTTNLQTIVISLKEEFYGHADALVGITPGEGDCLVSNVYIMDLTTFEDT	–	binds

Source: article PMC3715423
